These are yes or no findings as the source states them, for the method shown. In cells and extracts the contact can be indirect. Some binding calls cover weakened binding; strength is not graded here.
Target: HA-tagged HOOK1 (UniProt Q9UJC3)
Test: co-IP; anti-HA agarose on lysates of 293T cells exogenously expressing Flag- and HA-tagged HOOK1 and TNFSF13B; immunoblotting

binding: binds
Substance: Flag-tagged TNFSF13B (from UniProt Q9Y275 1-285)

From publication PMC10265082
